PubChem BioAssay AID1224830, NIAID | 2016

Screen: 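Host factors that control LPS-induced TNF expression in human macrophages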 (primary screen)
Cell system: human THP-1 monocytic leukaemia cells, TNF dual-luciferase reporter clone, PMA-differentiated to macrophage-like cells
Knock-down reagent: siRNA pool against human genes, 50 nM
Timing: LPS for 4 h, given about 3 days after siRNA transfection
Challenge: bacterial LPS (TLR4 ligand), 10 ng/ml
Read-out: 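TNF firefly reporter luminescence divided by renilla, normalised to the plate median, then turned into a robust z-score for each replicate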
Scale: TNF reporter robust z-score: higher = stronger TNF reporter response to LPS
Rule for the call: 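a well is active when its z-score exceeds 2.8 or falls below -1.5; control wells carry no call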
The whole screen tested about 18,000 reagents; shown is a part drawn at random. Of all reagents, about 2,900 (16%) are marked active. 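Calls are made per well; low scores hint the gene aids the LPS response, high scores that it dampens it.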 Repeated entries: four replicate wells of each siRNA pool. No sequences are given here.

Gene,TNF reporter robust z-score,call
KCNE3,0.52,inactive
KCNE3,0.21,inactive
KCNE3,0.22,inactive
KCNE3,-0.09,inactive
NUDT4,-1.47,inactive
NUDT4,-0.65,inactive
NUDT4,-0.94,inactive
NUDT4,0.09,inactive
TIMM8B,-1.78,active
TIMM8B,-0.61,inactive
TIMM8B,-1,inactive
TIMM8B,-1.82,active
POLH,1.44,inactive
POLH,0.84,inactive
POLH,0.41,inactive
POLH,1.41,inactive
ANGPTL8,0.12,inactive
ANGPTL8,0.03,inactive
ANGPTL8,0.37,inactive
ANGPTL8,1.42,inactive
SLC25A25,-0.14,inactive
SLC25A25,-0.38,inactive
SLC25A25,-0.28,inactive
SLC25A25,-0.77,inactive
QRICH1,-0.78,inactive
QRICH1,-1.17,inactive
QRICH1,-1.11,inactive
QRICH1,-0.87,inactive
NRBF2,-0.61,inactive
NRBF2,0.79,inactive
NRBF2,1.39,inactive
NRBF2,-0.62,inactive
ACAD10,-1.1,inactive
ACAD10,-0.65,inactive
ACAD10,-1.34,inactive
ACAD10,-0.79,inactive
PLEKHA7,1.09,inactive
PLEKHA7,-1.27,inactive
PLEKHA7,-1.79,active
PLEKHA7,-0.89,inactive
EFNA2,-2.06,active
EFNA2,-1,inactive
EFNA2,-1.37,inactive
EFNA2,-0.91,inactive
RPUSD3,-0.83,inactive
RPUSD3,-0.51,inactive
RPUSD3,-0.01,inactive
RPUSD3,-1.06,inactive
MMP15,0,inactive
MMP15,1.1,inactive
MMP15,-0.44,inactive
MMP15,0.01,inactive
TMEM35A,-0.69,inactive
TMEM35A,-0.85,inactive
TMEM35A,-1.21,inactive
TMEM35A,-1.48,inactive
TK1,0.53,inactive
TK1,0.89,inactive
TK1,0.79,inactive
TK1,1.56,inactive
F10,-0.38,inactive
F10,-0.37,inactive
F10,0.59,inactive
F10,-0.65,inactive

Next part (3 carried over from the part before).
Gene,TNF reporter robust z-score,call
F10,-0.37,inactive
F10,0.59,inactive
F10,-0.65,inactive
TRIM67,-1.21,inactive
TRIM67,-0.2,inactive
TRIM67,-1.54,active
TRIM67,-0.09,inactive
DYNLT2B,-0.5,inactive
DYNLT2B,-0.54,inactive
DYNLT2B,-0.14,inactive
DYNLT2B,0.27,inactive
GPR34,1.07,inactive
GPR34,1.24,inactive
GPR34,1.14,inactive
GPR34,0.03,inactive
OR10P1,0.96,inactive
OR10P1,0.11,inactive
OR10P1,-0.08,inactive
OR10P1,0.61,inactive
GRIN2B,2.85,active
GRIN2B,1.91,inactive
GRIN2B,0.92,inactive
GRIN2B,0.15,inactive
HSDL2,0.33,inactive
HSDL2,2.51,inactive
HSDL2,0.19,inactive
HSDL2,0.89,inactive
CTLA4,-0.8,inactive
CTLA4,-0.24,inactive
CTLA4,0.76,inactive
CTLA4,0,inactive
TMEM14C,-1.09,inactive
TMEM14C,0.58,inactive
TMEM14C,0.24,inactive
TMEM14C,0.17,inactive
NPPC,1.33,inactive
NPPC,2.32,inactive
NPPC,1.65,inactive
COX11,1.07,inactive
COX11,11,active
COX11,2.17,inactive
COX11,0.61,inactive
SFN,-0.83,inactive
SFN,-0.78,inactive
SFN,-0.88,inactive
SFN,-0.26,inactive
TMSB4XP8,-1.73,active
TMSB4XP8,-1.81,active
TMSB4XP8,-1.77,active
TMSB4XP8,-1.35,inactive
CACNA1E,-0.04,inactive
CACNA1E,0.83,inactive
CACNA1E,1.01,inactive
CACNA1E,2.05,inactive
C8orf34,-1.01,inactive
C8orf34,-0.05,inactive
C8orf34,-0.86,inactive
C8orf34,-0.32,inactive
H4C11,2.21,inactive
H4C11,3.36,active
H4C11,1.03,inactive
H4C11,2.24,inactive
LPIN2,-0.62,inactive
LPIN2,0.48,inactive
LPIN2,1.53,inactive
LPIN2,-0.31,inactive
SPOCK2,-0.09,inactive
SPOCK2,0.22,inactive
SPOCK2,0.93,inactive
SPOCK2,1.1,inactive
HEXB,-0.56,inactive
HEXB,-1.19,inactive
HEXB,-0.53,inactive
HEXB,-0.33,inactive
PMEPA1,-0.35,inactive
PMEPA1,0.29,inactive
PMEPA1,0.19,inactive
PMEPA1,-1.09,inactive
AURKAIP1,-1.23,inactive
AURKAIP1,0,inactive
AURKAIP1,0.02,inactive
AURKAIP1,-0.42,inactive
